Laboratory results reported in PMC4592220, “Geminivirus Activates [sequence] LEAVES 2 to Accelerate Cytoplasmic DCP2-Mediated mRNA Turnover and Weakens RNA Silencing in Arabidopsis” (PLoS Pathogens, 2015).
Results are given in words; binding and its absence hold for the method and conditions named. Binding seen in cells or lysates may run through a third protein. Some binding calls cover weakened binding; strength is not graded here. Sequences can lack the tags named with a protein.

Target: T1, AS2 fused to nYFP or cYFP (BiFC) (Arabidopsis thaliana) (UniProt O04479)
T1 sequence: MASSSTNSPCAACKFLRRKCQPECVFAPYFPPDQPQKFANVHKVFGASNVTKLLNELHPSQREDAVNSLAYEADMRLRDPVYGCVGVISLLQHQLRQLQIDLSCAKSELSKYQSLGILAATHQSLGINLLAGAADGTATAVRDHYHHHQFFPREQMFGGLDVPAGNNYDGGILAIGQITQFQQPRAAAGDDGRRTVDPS
Assay: split reporter; BiFC with nYFP and cYFP fusions co-infiltrated by Agrobacterium into N. benthamiana leaves; confocal microscopy 48 hours post-infiltration; Aux/IAA-ECFP as nuclear marker

B1: AS2 fused to nYFP or cYFP (BiFC) (protein, UniProt O04479 1-199)
chain: T1 sequence
Question: For B1, which binding is on record?
Answer: binds
